In paper PMC9445324:
These are yes or no findings as the source states them, for the method shown. In cells and extracts the contact can be indirect. Some binding calls cover weakened binding; strength is not graded here. Sequences can lack the tags named with a protein.

Sequences of proteins named here, by UniProt entry; tags and fusion partners are left off. A change or cut given only in a name is not applied to a line headed by its entry. A line that says so, or that is headed by a name, gives the form on record, which may keep a tag or linker.
UniProt Q0VGT2: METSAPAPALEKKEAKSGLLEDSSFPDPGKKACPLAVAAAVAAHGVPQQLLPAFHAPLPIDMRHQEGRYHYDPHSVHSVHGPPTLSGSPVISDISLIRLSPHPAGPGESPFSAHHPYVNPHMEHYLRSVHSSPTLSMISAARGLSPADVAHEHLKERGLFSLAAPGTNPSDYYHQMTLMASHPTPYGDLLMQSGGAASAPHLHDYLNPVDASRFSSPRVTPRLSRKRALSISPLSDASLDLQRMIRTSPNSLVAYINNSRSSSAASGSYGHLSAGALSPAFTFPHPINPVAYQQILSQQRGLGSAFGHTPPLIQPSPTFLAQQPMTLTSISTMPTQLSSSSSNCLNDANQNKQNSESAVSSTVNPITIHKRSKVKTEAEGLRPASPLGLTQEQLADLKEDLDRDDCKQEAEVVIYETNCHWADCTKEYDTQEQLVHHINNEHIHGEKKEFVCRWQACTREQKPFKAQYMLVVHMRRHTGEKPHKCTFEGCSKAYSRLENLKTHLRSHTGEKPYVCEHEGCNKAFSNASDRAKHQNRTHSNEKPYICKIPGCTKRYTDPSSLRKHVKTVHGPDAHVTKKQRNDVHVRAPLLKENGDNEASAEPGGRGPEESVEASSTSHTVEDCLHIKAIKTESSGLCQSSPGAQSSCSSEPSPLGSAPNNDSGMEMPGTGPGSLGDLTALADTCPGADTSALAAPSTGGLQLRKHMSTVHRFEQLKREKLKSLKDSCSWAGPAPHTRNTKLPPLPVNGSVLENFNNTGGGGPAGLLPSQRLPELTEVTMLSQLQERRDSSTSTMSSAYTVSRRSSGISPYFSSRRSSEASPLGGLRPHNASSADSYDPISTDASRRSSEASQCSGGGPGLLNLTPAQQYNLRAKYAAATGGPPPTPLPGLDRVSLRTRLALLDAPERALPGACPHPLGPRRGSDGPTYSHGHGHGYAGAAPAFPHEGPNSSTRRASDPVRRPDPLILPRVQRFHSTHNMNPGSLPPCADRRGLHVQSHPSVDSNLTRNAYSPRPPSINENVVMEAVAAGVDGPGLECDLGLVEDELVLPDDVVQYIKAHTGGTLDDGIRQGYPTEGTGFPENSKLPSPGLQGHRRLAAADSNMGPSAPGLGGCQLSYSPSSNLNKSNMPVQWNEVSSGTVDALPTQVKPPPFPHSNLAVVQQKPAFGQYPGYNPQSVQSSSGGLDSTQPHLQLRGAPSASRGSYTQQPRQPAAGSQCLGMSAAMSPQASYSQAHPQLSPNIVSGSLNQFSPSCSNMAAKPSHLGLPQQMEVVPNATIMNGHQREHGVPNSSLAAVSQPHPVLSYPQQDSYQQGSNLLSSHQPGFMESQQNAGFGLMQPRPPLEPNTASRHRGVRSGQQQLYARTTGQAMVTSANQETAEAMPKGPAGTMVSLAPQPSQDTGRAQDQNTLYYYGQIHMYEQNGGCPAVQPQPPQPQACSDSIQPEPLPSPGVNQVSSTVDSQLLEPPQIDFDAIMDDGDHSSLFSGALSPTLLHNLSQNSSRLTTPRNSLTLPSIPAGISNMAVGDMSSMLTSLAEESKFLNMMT
UniProt P19538: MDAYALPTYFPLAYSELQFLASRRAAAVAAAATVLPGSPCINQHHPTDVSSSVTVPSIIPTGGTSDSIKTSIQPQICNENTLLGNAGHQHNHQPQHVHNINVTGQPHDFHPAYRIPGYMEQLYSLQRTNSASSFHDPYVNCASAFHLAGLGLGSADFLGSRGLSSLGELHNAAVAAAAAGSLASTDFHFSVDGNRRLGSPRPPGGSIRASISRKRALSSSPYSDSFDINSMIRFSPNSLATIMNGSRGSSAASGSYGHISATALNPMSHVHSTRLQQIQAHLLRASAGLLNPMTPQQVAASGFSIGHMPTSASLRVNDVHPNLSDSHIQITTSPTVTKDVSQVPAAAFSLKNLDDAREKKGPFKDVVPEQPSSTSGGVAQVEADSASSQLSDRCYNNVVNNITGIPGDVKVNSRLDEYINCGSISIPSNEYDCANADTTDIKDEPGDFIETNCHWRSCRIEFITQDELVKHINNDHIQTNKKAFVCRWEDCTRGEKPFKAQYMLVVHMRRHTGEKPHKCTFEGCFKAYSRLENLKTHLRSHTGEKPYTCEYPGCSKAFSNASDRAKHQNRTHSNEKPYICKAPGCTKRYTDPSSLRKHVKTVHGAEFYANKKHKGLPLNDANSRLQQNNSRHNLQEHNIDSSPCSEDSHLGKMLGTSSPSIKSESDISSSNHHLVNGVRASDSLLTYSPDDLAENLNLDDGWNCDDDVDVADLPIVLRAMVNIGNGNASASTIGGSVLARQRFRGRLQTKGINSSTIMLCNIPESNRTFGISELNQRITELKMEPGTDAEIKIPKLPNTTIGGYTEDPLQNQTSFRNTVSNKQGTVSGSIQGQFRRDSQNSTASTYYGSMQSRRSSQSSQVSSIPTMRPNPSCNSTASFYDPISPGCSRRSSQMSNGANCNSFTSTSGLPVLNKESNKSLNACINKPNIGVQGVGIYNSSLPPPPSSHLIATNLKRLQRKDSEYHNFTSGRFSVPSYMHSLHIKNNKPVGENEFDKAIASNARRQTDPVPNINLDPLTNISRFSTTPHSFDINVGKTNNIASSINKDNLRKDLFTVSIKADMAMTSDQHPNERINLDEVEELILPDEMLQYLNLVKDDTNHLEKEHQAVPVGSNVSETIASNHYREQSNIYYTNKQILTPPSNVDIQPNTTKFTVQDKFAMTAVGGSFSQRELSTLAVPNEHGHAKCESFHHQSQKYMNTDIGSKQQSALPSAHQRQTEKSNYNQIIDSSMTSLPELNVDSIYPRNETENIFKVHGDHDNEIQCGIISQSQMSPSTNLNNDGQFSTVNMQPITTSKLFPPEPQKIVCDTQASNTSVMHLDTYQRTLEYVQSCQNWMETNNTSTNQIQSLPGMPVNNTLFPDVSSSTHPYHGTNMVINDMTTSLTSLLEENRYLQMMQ
Myc-Ci^-PKA (P19538, form named): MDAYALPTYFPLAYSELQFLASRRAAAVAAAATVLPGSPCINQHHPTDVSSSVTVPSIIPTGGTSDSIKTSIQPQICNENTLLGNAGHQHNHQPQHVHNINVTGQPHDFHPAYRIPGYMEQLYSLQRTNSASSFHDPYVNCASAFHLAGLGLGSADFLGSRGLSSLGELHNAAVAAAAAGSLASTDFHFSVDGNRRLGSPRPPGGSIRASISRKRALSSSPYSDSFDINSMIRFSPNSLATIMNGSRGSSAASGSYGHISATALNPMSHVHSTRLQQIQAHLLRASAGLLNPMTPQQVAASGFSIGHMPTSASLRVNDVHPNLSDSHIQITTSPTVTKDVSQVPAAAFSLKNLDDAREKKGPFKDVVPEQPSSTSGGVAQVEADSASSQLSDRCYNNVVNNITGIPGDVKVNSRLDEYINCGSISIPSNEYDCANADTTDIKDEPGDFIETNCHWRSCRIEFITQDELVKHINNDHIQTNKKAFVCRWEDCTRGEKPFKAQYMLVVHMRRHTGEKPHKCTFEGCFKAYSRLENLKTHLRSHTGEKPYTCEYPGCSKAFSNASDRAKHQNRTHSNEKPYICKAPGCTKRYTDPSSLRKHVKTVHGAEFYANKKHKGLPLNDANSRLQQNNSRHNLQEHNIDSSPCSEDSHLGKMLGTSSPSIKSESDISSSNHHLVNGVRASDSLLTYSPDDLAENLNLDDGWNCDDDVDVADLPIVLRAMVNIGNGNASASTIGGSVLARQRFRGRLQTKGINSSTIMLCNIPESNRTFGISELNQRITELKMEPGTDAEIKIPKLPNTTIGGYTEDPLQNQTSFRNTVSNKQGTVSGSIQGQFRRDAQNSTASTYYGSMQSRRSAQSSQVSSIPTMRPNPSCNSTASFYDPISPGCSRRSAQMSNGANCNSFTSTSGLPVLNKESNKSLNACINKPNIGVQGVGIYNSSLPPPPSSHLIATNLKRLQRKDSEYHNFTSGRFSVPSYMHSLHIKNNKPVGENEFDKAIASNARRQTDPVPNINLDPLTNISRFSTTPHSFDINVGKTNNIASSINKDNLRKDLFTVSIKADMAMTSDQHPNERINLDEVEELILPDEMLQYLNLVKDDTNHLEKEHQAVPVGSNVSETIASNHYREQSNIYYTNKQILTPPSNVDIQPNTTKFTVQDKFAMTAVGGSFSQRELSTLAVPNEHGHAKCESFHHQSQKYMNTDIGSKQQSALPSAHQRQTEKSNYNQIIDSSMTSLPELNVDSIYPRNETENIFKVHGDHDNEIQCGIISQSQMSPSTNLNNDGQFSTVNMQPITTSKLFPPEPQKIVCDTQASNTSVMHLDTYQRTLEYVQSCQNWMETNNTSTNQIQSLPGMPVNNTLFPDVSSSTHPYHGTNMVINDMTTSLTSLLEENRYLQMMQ

Tests used:
[1] = biological target: Myc-Gli2^WT (mouse) (UniProt Q0VGT2); assay: co-IP; Flag-Sufu coimmunoprecipitated with Myc-Gli2 variants; cells not given; Western blot
[2] = biological target: Myc-Ci^-PKA (Drosophila) (UniProt P19538); assay: co-IP; S2R+ cells transfected with Myc-Ci^-PKA variants and HA-Sufu; lysates immunoprecipitated with tag antibody and protein A-Sepharose, Western blot

binding [1]	binding [2]	Binder
binds	–	Flag-Sufu (protein, UniProt Q9Z0P7 1-484) MAELRPSVAPGPAAPPASGPSAPPAFASLFPPGLHAIYGECRRLYPDQPNPLQVTAIVKYWLGGPDPLDYVSMYRNMGSPSANIPEHWHYISFGLSDLYGDNRVHEFTGTDGPSGFGFELTFRLKRETGESAPPTWPAELMQGLARYVFQSENTFCSGDHVSWHSPLDNSESRIQHMLLTEDPQMQPVRTPFGVVTFLQIVGVCTEELHSAQQWNGQGILELLRTVPIAGGPWLITDMRRGETIFEIDPHLQERVDKGIETDGSNLSGVSAKCAWDDLSRPPEDEEDSRSICLGTQPRRLSGKDTEQIRETLRRGLEINSKPVLPPINSQRQNGLTHDRAPSRKDSLGSDSSTAIIPHELIRTRQLESVHLKFNQESGALIPLCLRGRLLHGRHFTYKSITGDMAITFVSTGVEGAFATEEHPYAAHGPWLQILLTEEFVEKMLEDLEDLTSPEEFKLPKEYSWPEKKLKVSILPDVVFDSPLH
–	binds	HA-Sufu (protein, UniProt Q9VG38 1-468) MAEANLDKKPEVKPPPGLKAIIDHLGQVYPNQPNPLQVTTLLKYWLGGQDPLDYISMYNYPGDVDRNVPPHWHYISFGLSDLHGDERVHLREEGVTRSGMGFELTFRLAKTEIELKQQIENPEKPQRPPTWPANLLQAIGRYCFQTGNGLCFGDNIPWRKSLDGSTTSKLQNLLVAQDPQLGCIDTPTGTVDFCQIVGVFDDELEQASRWNGRGVLNFLRQDMQTGGDWLVTNMDRQMSVFELFPETLLNLQDDLEKQGSDLAGVNADFTFRELKPTKEVKEEVDFQALSEKCANDENNRQLTDTQMKREEPSFPQSMSMSSNSLHKSCPLDFQAQAPNCISLDGIEITLAPGVAKYLLLAIKDRIRHGRHFTFKAQHLALTLVAESVTGSAVTVNEPYGVLGYWIQVLIPDELVPRLMEDFRSAGLDEKCEPKERLELEWPDKNLKLIIDQPEPVLPMSLDAAPLKM
